Data taken from article PMC5379108.
Results are given in words; binding and its absence hold for the method and conditions named. Binding seen in cells or lysates may run through a third protein. Some binding calls cover weakened binding; strength is not graded here.

The chains behind the UniProt entries cited, without tags or fusion partners.
UniProt O35382: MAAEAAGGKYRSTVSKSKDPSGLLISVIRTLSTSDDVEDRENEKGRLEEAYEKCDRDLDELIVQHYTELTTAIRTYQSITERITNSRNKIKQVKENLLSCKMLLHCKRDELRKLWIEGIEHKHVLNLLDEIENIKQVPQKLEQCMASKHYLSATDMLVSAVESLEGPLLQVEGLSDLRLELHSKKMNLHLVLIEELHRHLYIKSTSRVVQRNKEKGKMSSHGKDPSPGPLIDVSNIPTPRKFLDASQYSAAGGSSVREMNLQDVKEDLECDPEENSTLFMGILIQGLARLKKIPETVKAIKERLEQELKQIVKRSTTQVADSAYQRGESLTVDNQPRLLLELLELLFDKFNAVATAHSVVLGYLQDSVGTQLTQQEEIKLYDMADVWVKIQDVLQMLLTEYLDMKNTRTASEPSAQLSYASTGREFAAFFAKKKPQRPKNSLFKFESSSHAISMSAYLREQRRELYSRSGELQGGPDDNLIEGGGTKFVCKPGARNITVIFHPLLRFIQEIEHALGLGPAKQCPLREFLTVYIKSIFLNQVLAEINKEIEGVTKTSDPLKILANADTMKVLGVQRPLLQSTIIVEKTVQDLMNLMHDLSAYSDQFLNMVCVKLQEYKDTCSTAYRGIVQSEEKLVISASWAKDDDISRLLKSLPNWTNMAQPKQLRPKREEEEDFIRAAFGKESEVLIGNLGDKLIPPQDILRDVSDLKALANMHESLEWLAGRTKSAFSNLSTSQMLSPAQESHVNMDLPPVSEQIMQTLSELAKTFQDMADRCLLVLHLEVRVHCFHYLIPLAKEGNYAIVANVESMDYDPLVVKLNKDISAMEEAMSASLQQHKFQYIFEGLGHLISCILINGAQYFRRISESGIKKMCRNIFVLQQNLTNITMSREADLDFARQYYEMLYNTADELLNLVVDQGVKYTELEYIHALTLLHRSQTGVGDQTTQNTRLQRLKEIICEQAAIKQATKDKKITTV
UniProt Q99NH2: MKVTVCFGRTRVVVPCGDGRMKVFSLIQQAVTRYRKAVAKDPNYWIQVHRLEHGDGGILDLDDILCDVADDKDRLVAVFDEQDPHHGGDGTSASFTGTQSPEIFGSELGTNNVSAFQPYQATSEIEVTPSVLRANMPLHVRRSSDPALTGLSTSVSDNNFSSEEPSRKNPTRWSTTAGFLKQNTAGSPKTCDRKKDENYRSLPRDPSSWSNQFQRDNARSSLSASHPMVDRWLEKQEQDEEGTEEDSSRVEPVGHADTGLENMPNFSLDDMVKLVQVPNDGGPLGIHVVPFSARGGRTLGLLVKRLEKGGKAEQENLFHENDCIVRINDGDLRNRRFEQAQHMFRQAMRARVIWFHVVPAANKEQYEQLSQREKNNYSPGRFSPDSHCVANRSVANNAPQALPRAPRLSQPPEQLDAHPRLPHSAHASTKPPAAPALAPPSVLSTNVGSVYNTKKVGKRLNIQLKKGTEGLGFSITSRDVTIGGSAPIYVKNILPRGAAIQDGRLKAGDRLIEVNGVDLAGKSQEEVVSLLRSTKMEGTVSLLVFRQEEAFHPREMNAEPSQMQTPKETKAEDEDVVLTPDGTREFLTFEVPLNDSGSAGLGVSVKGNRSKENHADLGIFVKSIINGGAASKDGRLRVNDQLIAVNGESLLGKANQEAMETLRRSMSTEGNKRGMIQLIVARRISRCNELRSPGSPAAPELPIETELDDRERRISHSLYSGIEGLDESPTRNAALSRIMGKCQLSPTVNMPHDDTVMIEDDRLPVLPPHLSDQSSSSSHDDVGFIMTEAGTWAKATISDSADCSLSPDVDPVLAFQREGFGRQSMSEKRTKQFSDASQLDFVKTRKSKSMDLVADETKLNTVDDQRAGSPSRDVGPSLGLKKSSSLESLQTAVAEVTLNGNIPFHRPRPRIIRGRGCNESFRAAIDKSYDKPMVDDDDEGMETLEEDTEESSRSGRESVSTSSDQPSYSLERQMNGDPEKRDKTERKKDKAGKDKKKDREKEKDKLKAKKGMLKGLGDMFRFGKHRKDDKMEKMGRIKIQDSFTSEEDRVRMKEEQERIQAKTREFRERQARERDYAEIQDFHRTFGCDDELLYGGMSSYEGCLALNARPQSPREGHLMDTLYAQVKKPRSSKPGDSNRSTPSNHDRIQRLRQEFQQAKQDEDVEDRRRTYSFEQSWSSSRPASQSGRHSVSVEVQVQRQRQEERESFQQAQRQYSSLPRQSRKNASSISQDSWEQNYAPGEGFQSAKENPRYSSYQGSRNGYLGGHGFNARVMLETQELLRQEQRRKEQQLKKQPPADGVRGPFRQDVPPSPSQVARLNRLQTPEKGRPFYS

Target: Sec8 (endogenous, NMuMG) (mouse (endogenous in NMuMG)) (UniProt O35382)
Assay: co-IP; endogenous proteins; Sec8 immunoprecipitated with anti-Sec8 (14/SEC8) from NMuMG cells, mouse IgG as control; also after silencing of Par3 or of aPKC; lysis in 0.1% Triton-X100, 20 mM HEPES pH 7.4, 50 mM NaCl, 2 mM EDTA

binding: binds
Substance: Par3 (endogenous, NMuMG) (from UniProt Q99NH2 1-1333)
